The target in the assay is NMDA receptor (NMDAR) formed by NR1A fused to Renilla luciferase (NR1A-Rluc) plus NR2B (human) (UniProt Q05586+Q13224). The experiment in a line: FRET or BRET; BRET saturation in living HEK-293T cells: constant cDNA for NR1A-Rluc and NR2B, increasing cDNA for CB1R-YFP or GHSR1a-YFP; 5 µM coelenterazine H, HBSS pH 7.4 with 0.1% glucose; cells treated or not with 10 µg/L human α-syn fibrils for 48 h.

Sequences of proteins named here, by UniProt entry; tags and fusion partners are left off.
UniProt Q92847: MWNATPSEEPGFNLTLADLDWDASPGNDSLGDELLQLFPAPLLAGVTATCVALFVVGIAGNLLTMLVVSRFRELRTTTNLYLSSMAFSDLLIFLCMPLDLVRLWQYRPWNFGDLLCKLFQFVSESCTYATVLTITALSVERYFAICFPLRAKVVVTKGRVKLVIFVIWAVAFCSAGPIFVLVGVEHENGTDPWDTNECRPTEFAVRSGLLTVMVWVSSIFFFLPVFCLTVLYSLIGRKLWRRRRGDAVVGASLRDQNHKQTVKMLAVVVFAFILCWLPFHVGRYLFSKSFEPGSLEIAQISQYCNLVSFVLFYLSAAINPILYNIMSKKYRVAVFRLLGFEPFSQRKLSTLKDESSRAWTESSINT

Here are results for one substance from article PMC10931566.

Results are given in words; binding and its absence hold for the method and conditions named. In cells and extracts the contact can be indirect.

As to “ghrelin receptor GHSR1a fused to the yellow fluorescent protein (GHSR1a-YFP) (from UniProt Q92847 1-366)”, the binding entry was “no binding”.
